From the supplement of paper PMC12764529 come the findings set out here.

The nature of data set [1]: folding stability dG unfold (combined trypsin and chymotrypsin); higher = more stable. The method in brief:
(§1)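 Unfolding free energy was derived, per protease or combined, against a sequence-predicted unfolded-state K50 and a shared folded-state K50, starting from K50 inferred by Bayesian fitting of sequencing counts. Digestion with trypsin and chymotrypsin was carried out on designed mini-proteins under 80 residues without cysteine in a PA-tagged cDNA display construct. Only designs with AlphaFold2 dimer inter-PAE above 15 were kept.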

The nature of data set [2]: folding stability dG unfold from chymotrypsin proteolysis; higher = more stable. The method in brief:
as §1

Data set [3] is described as follows: folding stability dG unfold from trypsin proteolysis; higher = more stable. The method in brief: as §1

± gives the half width of the 95% confidence interval. For many entries, trypsin and chymotrypsin gave values far apart. Some results are limits rather than exact numbers.

Take “SKSISISIPKTAPNVLPEEIAANLASLGYDVEIVSVEFDPETGKVTVHYRVYNPNGELLVDVHVEIDFGDSA [r9_879_TrMRF]”: the entries for the “folding stability dG unfold” value in data set [1], in data set [2] and in data set [3] were 3 ± 0.095 kcal/mol, 3.38 ± 0.064 kcal/mol and 1.13 ± 0.028 kcal/mol, respectively.

Turning to “SAGEVELKIVLPKEEIEKILEALRKLAEEAGLEVEVEKIEKKEDGYYVITVTVKFKETEKEIKIEIIIPSAG [r5_41_TrROS_Hall]”, the figures for the “folding stability dG unfold” value in data set [1], in data set [2] and in data set [3] were 2.69 ± 0.31 kcal/mol, 2.55 ± 0.12 kcal/mol and 3 ± 0.51 kcal/mol, respectively.

With “SAGGSAGGSAGGAPKGAPVFFHVIRKEKKVTLEKTPDGELKETIEEKITVELFTLLAPESAGGSAGGSAGGS [r10_297_TrMRF]”, the “folding stability dG unfold” value in data set [1] was found to be 3.46 ± 0.19 kcal/mol; in data set [2], 4.23 ± 0.13 kcal/mol; in data set [3] it was 1.86 ± 0.083 kcal/mol.

As for “SMKKGEKKYKIKVKIYVYNKNGKPIKEIEIEIEVSEEELEKLKKLAEELAEKLNIKDLKIEIVEIEIEEESA [r9_376_TrROS_Hall]”, the entries for the “folding stability dG unfold” value in data set [1], in data set [2] and in data set [3] were 2.94 ± 0.2 kcal/mol, 3.29 ± 0.046 kcal/mol and 1.12 ± 0.18 kcal/mol, respectively.

In the case of “SAGGNRKFTLIIRIKAPPGDPDKMKEEVKEIANEIADIFRDHGVKVKVKVEYDPDNGEIYVQVEFEVPSAGG [r13_755_TrROS]”, the “folding stability dG unfold” value in data set [1] was 4.78 ± 0.29 kcal/mol; in data set [2], 5.12 ± 0.31 kcal/mol; in data set [3] it was 3.89 ± 0.29 kcal/mol.

For “SHHHHHHHMTEKTETVPTYKVETKTFTLPDGTTEREVTITLPGGLVTKELYRYDTVTGTWTLLKTETVLLSA [r9_795_JUSTAS]”, the “folding stability dG unfold” value in data set [1] turned out to be 3.72 ± 0.083 kcal/mol; in data set [2], 4.262 ± 0.039 kcal/mol; in data set [3] it was 1.7 ± 0.047 kcal/mol.

Turning to “SAGGSLPKSAEVKVEVYEFKLNEEGYLLVVVTTPDGKVIVIPFKNPGKFSPETVKKIEELVKEIEGSAGGSA [r2_17_TrMRF]”, the figures for the “folding stability dG unfold” value in data set [1], in data set [2] and in data set [3] were 3.48 ± 0.14 kcal/mol, 3.93 ± 0.092 kcal/mol and 1.34 ± 0.07 kcal/mol, respectively.

“SAGAKIKVEKLEDGTYKVTITFYDKDGKKIAEKEFTVKNPKTGKYYKIRIKIEKKDGKLVIKIEIEEVSAGG [r19_185_TrROS_Hall]”: the “folding stability dG unfold” value is > 6 kcal/mol in data set [1], 5.97 ± 0.32 kcal/mol in data set [2] and 3.71 ± 0.26 kcal/mol in data set [3].

As to “SAGGSAGGSAGGSMIEVKVGNKTASALVVPDPESDNPIVLIKVDDKWYTVDPNGNIVPLPSAGGSAGGSAGG [r11_732_JUSTAS]”, the “folding stability dG unfold” value is 1.18 ± 0.065 kcal/mol in data set [1], 1.65 ± 0.012 kcal/mol in data set [2] and -0.451 ± 0.038 kcal/mol in data set [3].

As to “SAGGSAETVTLTLVDEETGLVVKLTVTKNEDGSYTVTIEVYKNGKLVEKKTLTVKKEDMTLEELLSSAGGSA [r15_147_TrROS_Hall]”, the “folding stability dG unfold” value in data set [1] was found to be 4.73 ± 0.27 kcal/mol; in data set [2], 5.24 ± 0.29 kcal/mol; in data set [3], 2.89 ± 0.27 kcal/mol.

With “SGPKPVPITVTRHKDHSFTITLPNGLTFTIPAPPNSWATATVDPEKGVVTVFVYNGDKTETFEIPLPPNLSA [r9_226_TrMRF]”, the results for the “folding stability dG unfold” value in data set [1], in data set [2] and in data set [3] were 5.09 ± 0.066 kcal/mol, 5.26 ± 0.04 kcal/mol and 3.05 ± 0.08 kcal/mol, respectively.

For the sequence “SAGGSAGGSAGGKKEELAKKLAEELEKKGVKPVKVEVVDGKIYITLKNGKKIEIKIEKKSAGGSAGGSAGGS [r10_169_TrROS_Hall]”, the “folding stability dG unfold” value in data set [1] was determined as 3.43 ± 0.39 kcal/mol; in data set [2], 4.03 ± 0.16 kcal/mol; in data set [3], 1.86 ± 0.11 kcal/mol.

Take “SAGGSAGGSAGGDPMKIVPIWIKFTITIPPDSPIMEKLGIDPEDVKIEFEFWMWVIVPDSAGGSAGGSAGGS [r10_82_TrROS]”: the “folding stability dG unfold” value is 4.6 ± 0.22 kcal/mol in data set [1], 5.18 ± 0.24 kcal/mol in data set [2] and 3.07 ± 0.12 kcal/mol in data set [3].

Turning to “SAGGKKTLYIKLKIKIKNKKDPNKEYEFTILLKVEIEKDKKTNKYTLKAEATIFYNGKLYKITLELPSAGGS [r16_300_TrROS_Hall]”, the figures for the “folding stability dG unfold” value in data set [1], in data set [2] and in data set [3] were 5.51 ± 0.22 kcal/mol, 5.76 ± 0.1 kcal/mol and 3.57 ± 0.21 kcal/mol, respectively.

“SAGGSAGGSAGEVTVPAVVPPDAVPEVVEAVERLGARAEVEWDPETGLYRVNITFDGEVGSAGGSAGGSAGG [r11_1043_TrMRF]”: the entries for the “folding stability dG unfold” value in data set [1], in data set [2] and in data set [3] were 0.604 ± 0.07 kcal/mol, 0.901 ± 0.06 kcal/mol and -0.00326 ± 0.067 kcal/mol, respectively.

For the sequence “SAGGATVKAPPPEVTLRLTVVTRTTTRNEATGETTERTEVRTLTLTFKPGETIDLAALLPPGATVVLESAGG [r13_753_TrROS_Hall]”, the “folding stability dG unfold” value in data set [1] was found to be 3.31 ± 0.31 kcal/mol; in data set [2] it was 3.83 ± 0.19 kcal/mol; in data set [3], 1.72 ± 0.074 kcal/mol.

Take “SAGKKIPAEELAKWIAKEFGFPPNMNVEVWYDPDTYTVRMPNYTIIITWEDGEIEIEIIPPKPDPEDRKSAG [r5_190_TrROS]”: the figures for the “folding stability dG unfold” value in data set [1], in data set [2] and in data set [3] were 3.01 ± 0.15 kcal/mol, 3.59 ± 0.082 kcal/mol and 1.28 ± 0.023 kcal/mol, respectively.
